Test results: PubChem BioAssay AID624504 (Sanford-Burnham Center for Chemical Genomics, 2012)
The entries are a selection whose mix differs from that of the whole data set. The source made the active and inactive calls. No stated cut-off is given here; in the data, active means inhibition above about 22%; inactive means the rest.

experiment: fluorescence retest of MPTP screen hits in isolated mitochondria, single concentration (AID 624504); details: membrane potential, Rhodamine 123 fluorescence, at 10 µM, hits give high values;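 further: 0% = DMSO vehicle and 100% = positive control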

inhibition, active:
CC(C)C(=O)NC(Nc1cc(C(F)(F)F)ccc1Cl)C(Cl)(Cl)Cl (stereo not given) 87.3%
CC(C)(C)C1CCC2(CC1)C(C#N)=C(SCC(=O)Nc1ccccc1)NC(=O)C2C#N (stereo not given) 80%
O=C(Nc1ccccc1)c1ccccc1NS(=O)(=O)c1ccc(Cl)s1 106%
Cc1ccc(-c2cc(C(=O)N3N=C(C(F)F)CC3(O)C(F)F)c3ccccc3n2)cc1C (stereo not given) 78.1%
O=[N+]([O-])c1ccc(-c2nc(-c3cccs3)c(-c3cccs3)[nH]2)cc1 60.7%
CCc1ccc(-n2cccc2/C=C2/C(=N)N3C(=NC2=O)SN=C3S(C)(=O)=O)cc1 57.5%
COc1cccc(C(=O)NN/C(C)=C/C(=O)C(F)(F)C(F)(F)C(F)(F)F)c1 70%
O=C(Nc1ccncc1)c1ccc(-c2ccccc2)cc1 98.3%
Cc1ccc(S(=O)(=O)N2CCN(c3ncnc4ccccc34)CC2)cc1 78.4%
Cc1cc(/C=C\c2ccc3cc(N(C)C)ccc3[n+]2C)c(C)n1-c1ccccc1 77%
